Tested on: Human hepatocellular carcinoma (Huh-7) cells
Assay: Phosphorylation and DNA/RNA incorporation of 3H-compound 1
Type: cell-based
Settings: 3H compound 1, after 24 h

Nc1ncnc2c([C@@H]3N[C@H](CO)[C@@H](O)[C@H]3O)c[nH]c12 [Compound 1, (2S,3S,4R,5R)-2-(4-Amino-5H-pyrrolo[3,2-d]pyrimidin-7-yl)-5-(hydroxymethyl) pyrrolidine-3,4-diol]
total RNA and genomic DNA incorporation in Huh-7 cells: not incorporated into mammalian RNA or DNA
